PubChem BioAssay AID1259254, NCATS, 2017
Purpose: 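Finding genes that stop cells copying their DNA twice in one cycle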 (primary screen). System: human HCT116 colorectal cancer cells. Knock-down reagent: single siRNA against human genes. Timing: 3 days. Read-out: 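Imaged Hoechst DNA stain sorts each cell into a cycle phase by DNA amount; per plate, G2 fraction set to 0% for non-targeting and 100% for GMNN siRNA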. Direction: G2 robust z-score: higher = more G2 cells, more excess DNA replication. Call rule: 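Active siRNAs have a G2 robust z of 5 or more median absolute deviations over the median, which in these data means about 38% or higher of GMNN control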.
This is an unselected part of about 59,000 reagents tested. About 1,550 of them (2.6%) count as active. 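G2 share is only a proxy for re-replication; each gene was hit by three separate siRNAs, and active genes were retested.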 Entries without a mark were called inactive. Reagents against one gene are numbered here. Further read-outs or replicates are left out here. Not given: the amount of reagent.

G2 robust z-score, by gene and reagent
MYL5 (GeneID 4636): #1 3.75; #2 2.89; #3 0.0993
TIGD2 (GeneID 166815): #1 0.21; #2 0.718; #3 1.16
KRT4 (GeneID 3851): #1 4.76; #2 -0.228; #3 0.929
CORO2B (GeneID 10391): #1 -0.314; #2 -0.61; #3 0.0976
NATD1 (GeneID 256302): #1 0.664; #2 0.252; #3 0.981
ZNF496 (GeneID 84838): #1 -0.422; #2 -1.52; #3 -0.495
IFT25 (GeneID 51668): #1 0.253; #2 -0.699; #3 -0.94
SHCBP1 (GeneID 79801): #1 0.718; #2 -0.409; #3 -1.46
CNTNAP5 (GeneID 129684): #1 0.787; #2 1.8; #3 -0.402
CARMIL3 (GeneID 90668): #1 -0.22; #2 -0.793; #3 2
CNPY3 (GeneID 10695): #1 0.532; #2 0.163; #3 -0.835
DIRC1 (GeneID 116093): #1 -0.589; #2 3.48; #3 -0.558
THOC2 (GeneID 57187): #1 -0.0916; #2 0.247; #3 -0.802
BRCC3 (GeneID 79184): #1 2.29; #2 -0.0257; #3 1.74
SUFU (GeneID 51684): #1 -0.975; #2 0.124; #3 1.27
SLC7A6OS (GeneID 84138): #1 -0.617; #2 0.177; #3 1.94
CDH10 (GeneID 1008): #1 -0.22; #2 0.301; #3 0.157
HEY1 (GeneID 23462): #1 0.204; #2 0.988; #3 -0.24
OR1N1 (GeneID 138883): #1 -0.658; #2 1.75; #3 -0.537
LRRC74A (GeneID 145497): #1 -0.176; #2 1.69; #3 0.39
SEC22B (GeneID 9554): #1 -1.04; #2 -0.188; #3 -0.558
ZG16B (GeneID 124220): #1 0.794; #2 2.39; #3 -0.262
TMF1 (GeneID 7110): #1 -0.644; #2 1.66; #3 0.303

As entered above:
LRRC74A (GeneID 145497) #2, G2 robust z-score = 1.69
Value of CORO2B (GeneID 10391) #3 in “G2 robust z-score”: 0.0976
For “G2 robust z-score”, TIGD2 (GeneID 166815) #1 reads 0.21
CNPY3 (GeneID 10695) #1, G2 robust z-score = 0.532
For “G2 robust z-score”, TMF1 (GeneID 7110) #2 reads 1.66
CORO2B (GeneID 10391) #2, G2 robust z-score → -0.61
